PubChem BioAssay AID1259261 – Sanger Institute – 2017
Aim: 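Find kinase silencing that cuts viability alone or with anchor drugs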 (primary screen). Cell system: HCC2998 human colorectal cancer cells. Reagents: siRNA pool against human genes. Challenge: anchor drugs BYL719 1 µM, cetuximab 5 µg/ml or trametinib 10 nM, each compared with DMSO vehicle. Detection: 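Viability as fraction of non-targeting control plus robust z-score without drug; synergy scores compare knock-down plus drug against each alone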. Scale: viability z-score, knock-down alone: higher = more viable cells than controls. Call rule: 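Essential when the siRNA-alone viability robust z-score is below -3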. Calls: active = essential; inactive = no change.
The whole screen tested 794 reagents; below is a random part of them. 10 of them (1.3%) count as active. 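Calls reflect knock-down alone without drug; synergy scores with BYL719, cetuximab or trametinib do not affect calls.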 Unmarked entries are inactive. Not all columns of the deposit are shown. Not given: the amount of reagent, the time to read-out.

How did the screen score NPR2?
viability z-score, knock-down alone: 1.21

With HUS1, what does the deposit list?
viability z-score, knock-down alone: -0.604

With RYK, how do the results read?
viability z-score, knock-down alone: 0.31

With GNE, how do the results read?
viability z-score, knock-down alone: 0.0217

With CDC42BPB, how do the results read?
viability z-score, knock-down alone: 1.21

How did the screen score RBKS?
viability z-score, knock-down alone: 0.353

For CAMK2D, what does the deposit list?
viability z-score, knock-down alone: 1.21

What is on record for NIM1K?
viability z-score, knock-down alone: -0.529

For MAST2, what was measured?
viability z-score, knock-down alone: 0.772

With BRSK2, how do the results read?
viability z-score, knock-down alone: 1.18

With PTK2B, how do the results read?
viability z-score, knock-down alone: -0.416

With PDK4, what does the deposit list?
viability z-score, knock-down alone: -1.51

With PIM2, what was measured?
viability z-score, knock-down alone: 0.471

What is on record for DLG4?
viability z-score, knock-down alone: 1

With PI4K2B, how do the results read?
viability z-score, knock-down alone: 0.481

What did the screen give for PHKG1?
viability z-score, knock-down alone: 0.322

What did the screen give for TRIO?
viability z-score, knock-down alone: 0.00161

With IPPK, what was measured?
viability z-score, knock-down alone: 0.438

What is on record for STK17B?
viability z-score, knock-down alone: 0.000565
